Data taken from patent US20080025968A1.
Results are given in words; binding and its absence hold for the method and conditions named. In cells and extracts the contact can be indirect. Some binding calls cover weakened binding; strength is not graded here. Where a sequence is shown, tags or fusion partners need not be part of it.

Chains of the proteins cited; added tags and fusions are not shown. Lines headed by an entry give the natural chain unless they say otherwise; changes in a name come on top.
UniProt Q99558: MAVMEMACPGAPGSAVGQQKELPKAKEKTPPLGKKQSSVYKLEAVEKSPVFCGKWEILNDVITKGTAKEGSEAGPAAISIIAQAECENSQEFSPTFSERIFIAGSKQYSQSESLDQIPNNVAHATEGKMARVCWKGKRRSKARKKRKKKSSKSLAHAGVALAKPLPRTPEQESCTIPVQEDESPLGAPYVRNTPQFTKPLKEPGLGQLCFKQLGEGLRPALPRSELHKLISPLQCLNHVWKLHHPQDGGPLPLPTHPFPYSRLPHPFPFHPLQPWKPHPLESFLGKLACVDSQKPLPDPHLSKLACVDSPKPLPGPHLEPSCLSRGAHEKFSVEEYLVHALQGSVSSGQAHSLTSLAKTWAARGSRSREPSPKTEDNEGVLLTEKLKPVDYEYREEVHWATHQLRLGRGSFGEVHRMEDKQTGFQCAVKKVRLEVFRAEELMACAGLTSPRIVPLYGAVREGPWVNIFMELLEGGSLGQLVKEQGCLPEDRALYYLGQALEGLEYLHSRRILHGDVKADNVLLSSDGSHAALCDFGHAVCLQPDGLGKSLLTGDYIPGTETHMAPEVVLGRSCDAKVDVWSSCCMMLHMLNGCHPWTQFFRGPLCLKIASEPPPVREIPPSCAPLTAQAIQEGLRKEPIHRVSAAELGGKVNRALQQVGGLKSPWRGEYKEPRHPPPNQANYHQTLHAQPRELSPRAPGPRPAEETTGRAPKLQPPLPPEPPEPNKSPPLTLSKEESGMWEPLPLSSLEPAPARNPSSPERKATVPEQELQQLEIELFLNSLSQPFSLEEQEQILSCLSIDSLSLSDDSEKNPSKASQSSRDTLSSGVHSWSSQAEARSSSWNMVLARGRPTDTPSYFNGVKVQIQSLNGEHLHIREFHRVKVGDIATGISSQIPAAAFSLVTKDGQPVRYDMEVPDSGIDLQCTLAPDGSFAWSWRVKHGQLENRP

Legend:
[1] = target: T1, HIS-SIVA1 (human SIVA1 in pcDNA3.1-HIS) (human) (UniProt O15304); assay: co-immunoprecipitation from transfected HEK293 cells
T1 sequence: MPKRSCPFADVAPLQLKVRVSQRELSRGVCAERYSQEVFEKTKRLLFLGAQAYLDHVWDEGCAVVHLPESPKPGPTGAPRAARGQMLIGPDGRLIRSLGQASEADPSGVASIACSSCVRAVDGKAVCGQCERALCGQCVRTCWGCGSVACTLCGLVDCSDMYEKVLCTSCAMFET

[2] = target: T2, HIS-SIVA2 (human SIVA2 in pcDNA3.1-HIS) (human) (UniProt O15304); assay: as above
T2 sequence: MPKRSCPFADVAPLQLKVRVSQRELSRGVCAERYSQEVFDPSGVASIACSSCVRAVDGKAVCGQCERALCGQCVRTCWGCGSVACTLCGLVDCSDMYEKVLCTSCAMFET

[3] = target: T1, HIS-SIVA1 (human SIVA1 in pcDNA3.1-HIS) (human); assay: summary of yeast two-hybrid and co-immunoprecipitation
[4] = target: T2, HIS-SIVA2 (human SIVA2 in pcDNA3.1-HIS) (human); assay: as above
[5] = target: T1, HIS-SIVA1 (human SIVA1 in pcDNA3.1-HIS) (human); assay: co-immunoprecipitation (anti-HIS and anti-myc) from transfected HEK293T cells
[6] = target: T2, HIS-SIVA2 (human SIVA2 in pcDNA3.1-HIS) (human); assay: as above

Measured: binding

myc-NIK (NIK N-terminally fused to the myc tag) (from UniProt Q99558 1-947) (enzyme)
binds: all assays above
